Patent publication US10376603B2, “Engineered fluorinated biomaterials” (New York University, priority 2015, dated 2019)

Tests used:
[1] = 19F NMR inversion recovery and CPMG relaxation; conditions: 19F NMR 11.7 Tesla
Protocol: Nuclear Magnetic Resonance (NMR) experiments were carried out on a 500 MHz (11.7 Tesla) Bruker Avance II instrument equipped with a 5 mm room-temperature BBFO SMART probe and Topspin 3.2 software. For variable temperature (27° C., 37° C. and 42° C.) ^19F/^1H decoupling experiments, CE2-RGD-TFL (1.2 mg/mL) was subjected to 15000 scans with a sweep width of 76.62 ppm, acquisition time of 0.4547 seconds, relaxation time of 1.0 second, pulse length of 15 μseconds and referenced with 0.01% para-fluorophenylalanine. Both the inversion recovery and Car-Purcell-Meiboom-Gill (CPMG) ^19F NMR experiments were performed on CE2-RGD-TFL (0.5 mg/mL, 0.6 mg/mL, 0.75 mg/mL, 0.9 mg/mL) at varying temperatures (22° C., 27° C., 32° C., 37° C.). The relaxation times (T1 and T2) were determined by using Topspin 3.2 software.

[2] = 2D Gradient Echo MRI of phantoms; conditions: approximately 5 mg/mL phantom, 7T
Protocol: Magnetic Resonance imaging (MRI) experiments were carried using a 2D Gradient echo (GE) MRI. For GE experiments, a solution of approximately 5 mg/mL CE2-RGD-TFL (total volume ˜500 μL) (FIG. 8) and a negative control volume of water were placed in separate 5 mm NMR tubes and subjected to scanning in a home-made coil. A broadband tuning and matching solenoid coil was developed to cover both Larmor frequencies of ^1H proton (300.16 MHz) and ^19F (282.4 MHz) at 7T. The solenoid coil was made from silver plated copped wire wrapped tightly around a plastic holder that can hold up to 2 glass tubes (OD 6 mm). The coil was first tuned and matched for ^1H scan that provide more signal and can be used as reference for ^19F scan. A 2D Gradient Echo (GE) sequence was used with 50 mm slice thickness (covering the whole length of the tube) and 300 μm in-plane (matrix size 64×64, TE 2.2 ms, TR 30 ms, scanning time 2 seconds). The coil was then tuned to ^19F frequency and scanned using the same sequence with lower resolution (600 μm in-plane, matrix size 32×32, scanning time 14 hours

B1: CE2-RGD-TFL: fluorinated protein block copolymer, SEQ ID NO:18: COMPcc domain flanked by RGD linkers plus elastin-like domain; all 11 leucines as 5,5,5-trifluoroleucine (protein)
chain: MRGSHHHHHHGSACELAARGDATATATATAACGDLAPQMLRELQETNAALQDVRELLRQQVKEITFLKNTVMESDASGLQAARGDATATATATAVDKPIAASAVPGVGVPGVGVPGFGVPGVGVPGVGVPGVGVPGVGVPGFGVPGVGVPGVGVPLEGSGTGAKLN
modifications: all leucines as 5,5,5-trifluoroleucine
notes: all 11 leucines as 5,5,5-trifluoroleucine
r1 ([1]; Conc. 0.50 mg/mL): −9.06E−05
r1 ([1]; Conc. 0.60 mg/mL): −3.15E−05
r1 ([1]; Conc. 0.75 mg/mL): −2.82E−05
r1 ([1]; Conc. 0.90 mg/mL): −2.81E−05
MRI signal, instrument tuned to 1H radiofrequency [2]: positive signals
MRI signal, instrument tuned to 19F radio frequency ([2]; 14 hours scan): positive signal
